Assay results taken from the supplement of paper PMC10849652.
The other results are listed elsewhere or left out.

Protein sequences, listed by entry. Tags and fused reporters are not part of them. Lines headed by an entry give the natural chain unless they say otherwise; changes in a name come on top.
UniProt P15374: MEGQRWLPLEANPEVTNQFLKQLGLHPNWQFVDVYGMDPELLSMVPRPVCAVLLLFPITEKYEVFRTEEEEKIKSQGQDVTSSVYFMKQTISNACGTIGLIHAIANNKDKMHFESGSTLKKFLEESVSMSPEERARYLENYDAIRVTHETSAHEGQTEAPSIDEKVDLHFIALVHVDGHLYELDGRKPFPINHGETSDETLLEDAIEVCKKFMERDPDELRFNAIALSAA
UniProt Q5T6F2: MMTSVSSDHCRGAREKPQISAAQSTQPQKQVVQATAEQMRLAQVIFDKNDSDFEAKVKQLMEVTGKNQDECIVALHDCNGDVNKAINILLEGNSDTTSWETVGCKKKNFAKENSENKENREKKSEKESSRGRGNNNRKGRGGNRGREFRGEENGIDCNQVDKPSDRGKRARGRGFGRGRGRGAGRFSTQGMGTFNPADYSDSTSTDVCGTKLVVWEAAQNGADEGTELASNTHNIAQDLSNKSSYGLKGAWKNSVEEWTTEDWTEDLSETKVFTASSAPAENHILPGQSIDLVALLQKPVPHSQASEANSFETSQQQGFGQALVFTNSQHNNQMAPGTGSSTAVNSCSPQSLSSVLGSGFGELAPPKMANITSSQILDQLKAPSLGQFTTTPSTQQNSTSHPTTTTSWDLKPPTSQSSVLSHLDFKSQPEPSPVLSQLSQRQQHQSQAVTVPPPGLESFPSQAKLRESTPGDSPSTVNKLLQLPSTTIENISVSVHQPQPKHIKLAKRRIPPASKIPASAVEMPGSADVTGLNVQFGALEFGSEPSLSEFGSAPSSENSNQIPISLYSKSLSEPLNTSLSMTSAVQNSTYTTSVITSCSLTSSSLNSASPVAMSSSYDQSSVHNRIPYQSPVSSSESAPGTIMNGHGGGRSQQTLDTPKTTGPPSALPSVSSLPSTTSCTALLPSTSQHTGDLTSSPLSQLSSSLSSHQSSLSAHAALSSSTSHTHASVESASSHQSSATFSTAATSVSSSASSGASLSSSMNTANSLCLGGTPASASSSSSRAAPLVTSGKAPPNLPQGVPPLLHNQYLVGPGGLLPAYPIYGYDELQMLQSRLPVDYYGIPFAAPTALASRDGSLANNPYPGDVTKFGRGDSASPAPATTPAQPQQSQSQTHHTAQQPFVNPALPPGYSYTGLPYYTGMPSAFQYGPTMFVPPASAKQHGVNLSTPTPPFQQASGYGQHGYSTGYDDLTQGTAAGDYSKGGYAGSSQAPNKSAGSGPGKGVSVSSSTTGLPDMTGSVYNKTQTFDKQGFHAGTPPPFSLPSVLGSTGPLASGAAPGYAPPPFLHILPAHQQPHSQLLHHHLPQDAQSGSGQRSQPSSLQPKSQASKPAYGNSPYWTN
UniProt Q13885, whole entry, looked up: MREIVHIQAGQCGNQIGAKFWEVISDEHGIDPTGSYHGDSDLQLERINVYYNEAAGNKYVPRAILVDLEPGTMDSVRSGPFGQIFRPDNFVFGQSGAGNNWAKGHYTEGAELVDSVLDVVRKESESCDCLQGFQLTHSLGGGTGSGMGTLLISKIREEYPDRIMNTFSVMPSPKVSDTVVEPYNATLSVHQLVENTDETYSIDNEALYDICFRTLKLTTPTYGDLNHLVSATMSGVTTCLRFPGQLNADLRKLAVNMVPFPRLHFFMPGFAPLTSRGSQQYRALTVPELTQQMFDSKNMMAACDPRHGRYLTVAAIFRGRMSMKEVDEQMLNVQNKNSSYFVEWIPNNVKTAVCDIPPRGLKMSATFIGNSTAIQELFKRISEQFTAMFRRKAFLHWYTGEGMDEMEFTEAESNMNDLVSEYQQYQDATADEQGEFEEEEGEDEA
UniProt P62253: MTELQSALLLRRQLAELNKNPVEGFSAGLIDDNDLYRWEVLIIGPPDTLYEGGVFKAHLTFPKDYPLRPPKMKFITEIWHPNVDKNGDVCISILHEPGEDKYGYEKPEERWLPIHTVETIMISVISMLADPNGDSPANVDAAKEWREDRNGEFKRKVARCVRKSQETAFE
UniProt P51668: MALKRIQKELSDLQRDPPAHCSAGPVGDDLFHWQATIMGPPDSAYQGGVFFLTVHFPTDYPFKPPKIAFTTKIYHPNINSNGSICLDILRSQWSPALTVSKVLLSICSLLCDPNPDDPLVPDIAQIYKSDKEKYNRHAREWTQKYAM
UniProt O43396: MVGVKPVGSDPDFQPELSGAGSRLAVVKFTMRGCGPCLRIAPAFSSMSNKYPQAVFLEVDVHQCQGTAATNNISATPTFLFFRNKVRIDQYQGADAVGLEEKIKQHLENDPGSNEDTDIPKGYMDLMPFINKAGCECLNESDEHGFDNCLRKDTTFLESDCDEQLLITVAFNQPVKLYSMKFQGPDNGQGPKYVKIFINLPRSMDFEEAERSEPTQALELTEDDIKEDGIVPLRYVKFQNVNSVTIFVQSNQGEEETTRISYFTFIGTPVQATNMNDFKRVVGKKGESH
UniProt Q9BZL1: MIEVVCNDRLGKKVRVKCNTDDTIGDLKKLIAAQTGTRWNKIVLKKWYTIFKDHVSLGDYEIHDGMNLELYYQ
UniProt P68371, whole entry, looked up: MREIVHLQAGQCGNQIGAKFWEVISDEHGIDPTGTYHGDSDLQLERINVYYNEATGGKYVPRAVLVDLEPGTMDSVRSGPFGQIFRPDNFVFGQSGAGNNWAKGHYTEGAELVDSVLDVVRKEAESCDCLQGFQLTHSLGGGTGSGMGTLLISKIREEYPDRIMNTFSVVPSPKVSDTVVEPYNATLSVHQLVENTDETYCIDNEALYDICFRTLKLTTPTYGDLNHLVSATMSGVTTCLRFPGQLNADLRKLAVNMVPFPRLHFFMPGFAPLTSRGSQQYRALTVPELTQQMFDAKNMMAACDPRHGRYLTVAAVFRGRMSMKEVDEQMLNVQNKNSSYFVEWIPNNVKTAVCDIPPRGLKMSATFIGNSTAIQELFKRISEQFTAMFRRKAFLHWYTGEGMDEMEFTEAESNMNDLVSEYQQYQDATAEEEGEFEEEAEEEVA
UniProt Q9UHD9, whole entry, looked up: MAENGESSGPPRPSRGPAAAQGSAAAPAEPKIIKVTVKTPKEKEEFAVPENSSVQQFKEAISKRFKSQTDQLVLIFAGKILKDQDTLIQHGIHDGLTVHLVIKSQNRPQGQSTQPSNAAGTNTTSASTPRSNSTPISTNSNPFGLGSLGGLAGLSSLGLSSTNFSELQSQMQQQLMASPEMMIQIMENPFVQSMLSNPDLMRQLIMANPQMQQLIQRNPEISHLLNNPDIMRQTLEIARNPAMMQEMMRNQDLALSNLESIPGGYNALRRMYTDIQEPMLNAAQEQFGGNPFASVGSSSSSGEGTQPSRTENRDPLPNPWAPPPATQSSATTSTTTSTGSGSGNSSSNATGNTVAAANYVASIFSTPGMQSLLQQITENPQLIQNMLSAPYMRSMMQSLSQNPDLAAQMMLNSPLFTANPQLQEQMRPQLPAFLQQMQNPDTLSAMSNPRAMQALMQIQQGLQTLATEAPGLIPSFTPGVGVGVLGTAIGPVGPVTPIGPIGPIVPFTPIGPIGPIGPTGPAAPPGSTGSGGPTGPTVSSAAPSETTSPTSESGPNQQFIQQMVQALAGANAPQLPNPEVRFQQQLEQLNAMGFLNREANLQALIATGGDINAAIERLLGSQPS
UniProt P23258, whole entry, looked up: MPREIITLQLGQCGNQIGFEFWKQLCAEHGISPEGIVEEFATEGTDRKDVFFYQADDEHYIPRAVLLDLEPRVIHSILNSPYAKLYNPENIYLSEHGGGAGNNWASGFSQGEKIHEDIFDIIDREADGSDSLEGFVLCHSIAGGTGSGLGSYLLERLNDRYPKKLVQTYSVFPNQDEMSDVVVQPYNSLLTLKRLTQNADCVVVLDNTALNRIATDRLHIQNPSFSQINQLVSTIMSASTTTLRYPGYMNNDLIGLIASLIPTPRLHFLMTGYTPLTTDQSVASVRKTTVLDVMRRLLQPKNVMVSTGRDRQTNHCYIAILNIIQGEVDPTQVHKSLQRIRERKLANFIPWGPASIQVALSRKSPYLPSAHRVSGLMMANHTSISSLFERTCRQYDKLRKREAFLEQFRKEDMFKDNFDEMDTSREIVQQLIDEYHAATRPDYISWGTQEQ
UniProt Q9UBT2: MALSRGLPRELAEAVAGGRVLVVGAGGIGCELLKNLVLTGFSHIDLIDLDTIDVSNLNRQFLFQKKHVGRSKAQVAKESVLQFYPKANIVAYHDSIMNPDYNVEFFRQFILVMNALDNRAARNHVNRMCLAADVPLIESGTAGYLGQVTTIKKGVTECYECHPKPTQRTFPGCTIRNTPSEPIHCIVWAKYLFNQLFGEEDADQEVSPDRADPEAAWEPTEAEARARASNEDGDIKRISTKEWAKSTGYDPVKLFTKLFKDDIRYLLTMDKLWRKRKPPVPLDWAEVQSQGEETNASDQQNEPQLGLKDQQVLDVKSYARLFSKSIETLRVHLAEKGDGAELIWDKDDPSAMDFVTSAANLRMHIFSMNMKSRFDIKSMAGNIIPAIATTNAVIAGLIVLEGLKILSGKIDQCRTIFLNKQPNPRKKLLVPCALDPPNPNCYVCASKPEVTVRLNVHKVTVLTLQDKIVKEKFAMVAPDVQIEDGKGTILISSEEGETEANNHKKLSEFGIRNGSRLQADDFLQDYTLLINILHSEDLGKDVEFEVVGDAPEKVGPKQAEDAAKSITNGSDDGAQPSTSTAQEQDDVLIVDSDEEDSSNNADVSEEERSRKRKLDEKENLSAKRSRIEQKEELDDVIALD
UniProt P62256: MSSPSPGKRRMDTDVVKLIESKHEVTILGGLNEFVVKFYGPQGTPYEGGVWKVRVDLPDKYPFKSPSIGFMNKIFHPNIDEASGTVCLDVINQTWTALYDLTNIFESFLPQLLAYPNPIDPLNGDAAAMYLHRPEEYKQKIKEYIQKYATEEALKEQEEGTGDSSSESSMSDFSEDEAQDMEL
UniProt Q8N2K1: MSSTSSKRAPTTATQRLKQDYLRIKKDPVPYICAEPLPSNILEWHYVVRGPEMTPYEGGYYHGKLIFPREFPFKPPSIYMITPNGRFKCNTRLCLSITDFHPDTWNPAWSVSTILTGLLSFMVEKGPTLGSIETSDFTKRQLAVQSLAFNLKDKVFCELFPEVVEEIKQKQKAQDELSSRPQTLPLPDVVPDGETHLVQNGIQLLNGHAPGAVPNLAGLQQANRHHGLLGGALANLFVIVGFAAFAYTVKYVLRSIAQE
UniProt Q5JXB2: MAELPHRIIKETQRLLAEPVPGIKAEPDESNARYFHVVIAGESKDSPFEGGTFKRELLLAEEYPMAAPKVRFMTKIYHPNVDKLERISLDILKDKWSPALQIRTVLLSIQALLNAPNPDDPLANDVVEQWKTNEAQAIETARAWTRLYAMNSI
UniProt P83876: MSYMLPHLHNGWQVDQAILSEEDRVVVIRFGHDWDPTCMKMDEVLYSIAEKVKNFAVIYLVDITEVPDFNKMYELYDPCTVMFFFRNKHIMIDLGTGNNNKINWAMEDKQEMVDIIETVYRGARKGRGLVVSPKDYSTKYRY
UniProt Q9H832: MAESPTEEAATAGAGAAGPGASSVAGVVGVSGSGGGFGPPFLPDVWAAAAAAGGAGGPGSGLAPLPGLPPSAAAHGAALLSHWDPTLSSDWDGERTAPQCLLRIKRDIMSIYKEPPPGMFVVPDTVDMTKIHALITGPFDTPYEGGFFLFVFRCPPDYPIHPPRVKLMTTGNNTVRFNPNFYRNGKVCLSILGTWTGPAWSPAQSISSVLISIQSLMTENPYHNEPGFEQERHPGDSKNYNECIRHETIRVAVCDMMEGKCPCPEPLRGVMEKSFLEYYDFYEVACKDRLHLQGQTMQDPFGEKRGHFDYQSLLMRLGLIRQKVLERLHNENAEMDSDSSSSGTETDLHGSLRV
UniProt P68036, whole entry, looked up: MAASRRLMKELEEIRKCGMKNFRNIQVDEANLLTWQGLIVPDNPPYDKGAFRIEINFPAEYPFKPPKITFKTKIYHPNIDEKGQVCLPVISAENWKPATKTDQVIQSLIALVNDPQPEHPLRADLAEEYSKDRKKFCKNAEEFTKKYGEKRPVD
UniProt Q712K3: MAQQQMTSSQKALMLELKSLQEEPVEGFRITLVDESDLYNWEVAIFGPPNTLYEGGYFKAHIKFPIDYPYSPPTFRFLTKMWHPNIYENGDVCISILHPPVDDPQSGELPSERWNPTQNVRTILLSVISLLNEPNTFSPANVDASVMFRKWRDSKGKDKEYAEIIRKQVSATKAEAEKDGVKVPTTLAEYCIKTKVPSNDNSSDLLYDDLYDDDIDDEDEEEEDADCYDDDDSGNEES
UniProt P68366, whole entry, looked up: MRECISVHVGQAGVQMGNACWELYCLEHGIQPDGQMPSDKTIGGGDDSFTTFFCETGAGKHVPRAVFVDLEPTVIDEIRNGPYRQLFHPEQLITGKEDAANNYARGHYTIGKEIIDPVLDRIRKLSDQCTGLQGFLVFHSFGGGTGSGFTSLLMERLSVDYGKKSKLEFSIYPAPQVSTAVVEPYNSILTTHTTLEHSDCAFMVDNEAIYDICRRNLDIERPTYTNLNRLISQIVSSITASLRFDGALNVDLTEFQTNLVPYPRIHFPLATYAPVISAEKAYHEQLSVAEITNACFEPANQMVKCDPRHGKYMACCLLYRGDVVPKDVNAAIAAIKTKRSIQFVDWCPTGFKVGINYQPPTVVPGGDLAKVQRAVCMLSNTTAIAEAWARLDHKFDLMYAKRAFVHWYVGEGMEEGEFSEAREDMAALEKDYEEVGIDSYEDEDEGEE

How the values were obtained:
Assay in all cases: log2 fold change, soluble protein after heating vs DMSO (PISA); higher = thermal stabilisation; K562 lysate, 10 uM; active = over 0.2 and 3.5 SD of the protein, either way, in both replicates (recomputed)
[1] = compound: C#Cc1cccc(Nc2ncnc3cc(OCCOC)c(OCCOC)cc23)c1 [erlotinib]
Method in brief: (§1)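 The values are log-two fold changes in thermal stability compared with solvent controls and come from duplicates. They were obtained by TMTpro 16plex LC-MS/MS, with channel sums equalised, on the supernatant after 21,000xg for 90 min. That supernatant came from crude K562 extract at 1 mg/mL protein treated with 10 μM compound for 30 min, heated for 3 min across 48°C-58°C, pooled and brought to 0.5% NP-40 at 4°C.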

[2] = compound: C/C(=N\NC(=O)C1=CC(=CC=C1)S(=O)(=O)N2CCOCC2)/C3=C(C=CC(=C3)Cl)O
Method in brief: as §1

[3] = compound: C1=CC(=CC=C1C2=NC3=C(N2)C=C(C=C3)C(=O)N)OC4=CC=C(C=C4)Cl
Method in brief: as §1

[4] = compound: C1=CC2=C(C=CC(=C2)/C=C\3/C(=O)NC(=NCC4=CC=CS4)S3)N=C1
Method in brief: as §1

[5] = compound: C1=CC2=NC=CN=C2C=C1/C=C/3\C(=O)NC(=O)S3
Method in brief: as §1

[6] = compound: C1=CC=C(C=C1)C2=NC(=C(N2)C3=CC=NC=C3)C4=CC(=C(C=C4)Cl)O
Method in brief: as §1

[7] = compound: C1=CC=C2C(=C1)C3=NNC4=CC=CC(=C43)C2=O
Method in brief: as §1

[8] = compound: C1CCN(C1)C(=O)NC2=CC=CC(=C2)NC3=NC=C(C(=N3)NCCC4=CN=CN4)Br
Method in brief: as §1

[9] = compound: C1CN(CCC1(CC2=CC=C(C=C2)Cl)N)C3=NC=NC4=C3C=CN4
Method in brief: as §1

[10] = compound: C1COCCN1CCN2C3=CC=CC=C3N=C2NC(=O)C4=CC(=CC=C4)[N+](=O)[O-] [IRAK-1-4 Inhibitor I]
Method in brief: as §1

Measured: log2 fold change

UCHL3 (UniProt P15374)
inactive: [1] -0.018 | [2] 0.053 | [3] -0.005 | [4] -0.001 | [5] -0.066 | [6] -0.039 | [7] 0.007 | [8] 0.02 | [9] 0.004 | [10] -0.007

UBAP2 (UniProt Q5T6F2)
inactive: [1] -0.02 | [2] -0.02 | [3] 0.032 | [4] 0.01 | [5] 0.022 | [6] -0.159 | [7] 0.016 | [8] -0.009 | [9] 0.001 | [10] 0.016

UBE2N (UniProt P61088)
inactive: [1] 0.016 | [2] 0.036 | [3] 0.004 | [4] 0 | [5] 0.014 | [6] -0.009 | [7] 0.045 | [8] 0.009 | [9] 0.053 | [10] 0.018

UBE2J1 (UniProt Q9Y385)
inactive: [1] 0.04 | [2] -0.194 | [3] -0.013 | [4] -0.034 | [5] 0.008 | [6] -0.046 | [7] 0.044 | [8] -0.046 | [9] 0.114 | [10] -0.007

TUBB2A (UniProt Q13885)
inactive: [1] 0.008 | [2] 0.04 | [3] 0.004 | [4] -0.021 | [5] -0.028 | [6] -0.008 | [7] -0.03 | [8] 0.014 | [9] 0.026 | [10] 0.019

UBE2G1 (UniProt P62253)
inactive: [1] -0.035 | [2] 0.009 | [3] 0.052 | [4] -0.011 | [5] 0.016 | [6] 0.016 | [7] 0.007 | [8] 0.009 | [9] -0.013 | [10] 0.005

UBE2D1 (UniProt P51668)
inactive: [1] -0.043 | [2] 0.008 | [3] 0.072 | [4] -0.007 | [5] -0.032 | [6] 0.008 | [7] -0.006 | [8] -0.042 | [9] 0.015 | [10] -0.038

TXNL1 (UniProt O43396)
inactive: [1] 0.013 | [2] 0.003 | [3] 0.018 | [4] 0 | [5] 0.001 | [6] -0.006 | [7] 0.007 | [8] 0.021 | [9] -0.005 | [10] 0

TTN isoform 12 (UniProt Q8WZ42)
inactive: [1] 0.01 | [2] -0.081 | [3] 0.021 | [4] -0.156 | [5] -0.013 | [6] 0.041 | [7] -0.06 | [8] -0.086 | [9] 0.043 | [10] 0.016

UBE3B (UniProt Q7Z3V4)
inactive: [1] -0.14 | [2] -0.218 | [3] -0.3 | [4] 0.056 | [5] 0.142 | [6] 0.011 | [7] -0.022 | [8] -0.04 | [9] -0.12 | [10] 0.019

UBL5 (UniProt Q9BZL1)
inactive: [1] 0 | [2] 0.002 | [3] -0.02 | [4] 0.011 | [5] -0.079 | [6] 0 | [7] 0.049 | [8] 0.029 | [9] 0.004 | [10] -0.062

TUBB4B (UniProt P68371)
inactive: [1] 0.008 | [2] -0.059 | [3] 0.019 | [4] -0.018 | [5] 0.005 | [6] -0.024 | [7] -0.011 | [8] 0.019 | [9] 0.03 | [10] 0.04

UBQLN2 (UniProt Q9UHD9)
inactive: [1] 0.017 | [2] -0.011 | [3] 0.052 | [4] 0.018 | [5] -0.03 | [6] -0.005 | [7] 0.01 | [8] -0.025 | [9] 0.058 | [10] -0.009

TUBG1 (UniProt P23258)
inactive: [1] 0.033 | [2] -0.03 | [3] -0.036 | [4] 0 | [5] -0.029 | [6] 0.049 | [7] -0.061 | [8] 0.002 | [9] -0.006 | [10] 0.055

UBA2 (UniProt Q9UBT2)
inactive: [1] -0.008 | [2] 0.016 | [3] 0.002 | [4] 0.011 | [5] 0.004 | [6] 0.011 | [7] 0.024 | [8] 0.033 | [9] 0.041 | [10] -0.016

UBE2H (UniProt P62256)
inactive: [1] -0.002 | [2] -0.002 | [3] 0.009 | [4] 0.008 | [5] 0.014 | [6] 0.029 | [7] 0.019 | [8] 0.013 | [9] -0.036 | [10] -0.026

UBE2L6 (UniProt O14933)
inactive: [1] 0.062 | [2] -0.03 | [3] 0.007 | [4] -0.003 | [5] -0.065 | [6] -0.001 | [7] 0.023 | [8] -0.014 | [9] 0.144 | [10] 0.047

UBE2J2 (UniProt Q8N2K1)
inactive: [1] 0.027 | [2] 0 | [3] 0.059 | [4] 0 | [5] -0.109 | [6] -0.049 | [7] -0.051 | [8] -0.029 | [9] -0.033 | [10] 0.038

UBE2NL (UniProt Q5JXB2)
inactive: [1] -0.01 | [2] 0.097 | [3] 0.008 | [4] 0.008 | [5] -0.038 | [6] -0.002 | [7] 0.029 | [8] 0 | [9] 0.033 | [10] -0.003

TXNL4A (UniProt P83876)
inactive: [1] 0.001 | [2] 0.039 | [3] 0.049 | [4] 0.012 | [5] 0 | [6] 0.02 | [7] -0.026 | [8] -0.01 | [9] 0.016 | [10] 0.003

UBE2Z (UniProt Q9H832)
inactive: [1] 0.017 | [2] 0.03 | [3] -0.032 | [4] -0.002 | [5] 0.022 | [6] -0.001 | [7] -0.009 | [8] -0.02 | [9] -0.011 | [10] -0.045

UBE2L3 isoform 3 (UniProt P68036)
inactive: [1] -0.004 | [2] 0.003 | [3] 0.023 | [4] -0.047 | [5] 0.017 | [6] -0.002 | [7] 0 | [8] 0.036 | [9] 0.012 | [10] 0.007

UBE2I (UniProt P63279)
inactive: [1] -0.001 | [2] 0.037 | [3] 0.008 | [4] -0.01 | [5] 0.007 | [6] 0 | [7] 0.023 | [8] 0.034 | [9] 0.021 | [10] 0.007

UBXN6 (UniProt Q9BZV1)
inactive: [1] -0.02 | [2] 0.001 | [3] 0.001 | [4] -0.024 | [5] 0.006 | [6] 0.036 | [7] -0.073 | [8] 0 | [9] -0.005 | [10] -0.007

UBE2R2 (UniProt Q712K3)
inactive: [1] -0.032 | [2] -0.11 | [3] -0.025 | [4] -0.012 | [5] -0.003 | [6] -0.003 | [7] 0.021 | [8] 0.066 | [9] 0.04 | [10] -0.013

UBE2F isoform 2 (UniProt Q969M7)
inactive: [1] 0.01 | [2] 0.05 | [3] 0.025 | [4] -0.041 | [5] 0.031 | [6] -0.018 | [7] -0.007 | [8] -0.049 | [9] 0.032 | [10] 0.042

TUBA4A (UniProt P68366)
inactive: [1] 0.074 | [2] 0.019 | [3] -0.017 | [4] -0.034 | [5] -0.01 | [6] -0.036 | [7] -0.017 | [8] 0 | [9] 0.036 | [10] 0.032

TUT7 (UniProt Q5VYS8)
inactive: [1] 0.029 | [2] -0.107 | [3] -0.049 | [4] 0.052 | [5] 0.064 | [6] -0.025 | [7] -0.045 | [8] 0.022 | [9] 0.057 | [10] 0.073
